Measurements as given in patent US10227561B2, “Methods and compositions for targeting progenitor cell lines” (Mandala Biosciences, LLC, priority 2012, dated 2019).
Some of these results come from one statement about several compounds together.

Test system: W10 cells
Assay: Cell labeling with peptide targeted Qdot complexes (microscopy, flow cytometry)
Type: cell-based, human
Conditions: 5 nM Qdot complexes, 16 h at 37° C., gated on untargeted Qdots
Experimental: For flow cytometric analysis of labeled cells, cells were removed from the plates using TrypLE for 5 min at 37° C. Cells were resuspended in PBS, passed through strain top tubes and analyzed using flow cytometer. Control samples included unlabeled cells and cells labeled with untargeted Qdots. For each sample, 10,000 events were quantified. The LSRFortessa flow cytometer (BD Biosciences) was used with a violet laser excitation at 405 nm with a 605/23 bandpass filter to detect Qdot605 and the yellow laser excitation at 561 nm with a 670/30 bandpass filter to detect Qdot655. Cell autofluorescence was detected with the blue laser excited at 488 nm and a 510/25 bandpass filter.
2 μM of Qdot Streptavidin conjugate (Qdot605 ITK SA, Invitrogen, Q10001MP) were diluted in 100 μl of binding buffer (supplied with Qdot605 ITK SA) and incubated with 100-fold excess of biotinylated peptide on ice for 1 h. Uncoupled biotinylated peptide was removed from the mixture by incubating it with streptavidin magnetic beads equilibrated in PBS on ice for 30 min; placing the mixture on a magnetic stand to separate the beads and removed the complexes in solution. SA-beads were washed with PBS and combined with the recovered complexes. For control reactions, Qdots were incubated with binding buffer and treated in similar way as the peptide complexes. […]

| Sequence | percentage of cells labeled with peptide-Qdot complexes [%] |
| --- | --- |
| GWVIDYDYYPMR (FROM PHAGE DISPLAY LIBRARY) [W10 R2 11, W10 selected 12-mer; tested as M13 display phage, C-terminal biotinylated free peptide and streptavidin Qdot complex] | > 75 |
| GWYWETPLDMFN (FROM PHAGE DISPLAY LIBRARY) [W10 R2 21, W10 selected 12-mer; tested as M13 display phage, C-terminal biotinylated free peptide and streptavidin Qdot complex] | > 75 |
